A short description of the assay: qHTS Assay for Lipid Storage Modulators in Drosophila S3 Cells.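 On cell number change: cells counted by Cell Tracker Red CMTPX staining in the red channel.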 As to conditions: BODIPY lipid droplet fluorescence, 18-24 h; for cell number change: measured here: cell count max response, cells fed with added oleic acid. The procedure, abridged:
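Laser-scanning cytometry quantifies lipid droplet accumulation (500–530 nm total intensity; droplet/cell object ratio) in oleic acid-fed (400 uM added) Drosophila S3 cells treated with a concentration series. 20 uM Triacsin C defined 100% inhibition.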

Setting [1] is: measured here: cell number channel AC50, cells fed with added oleic acid.
Where [2] appears, read: measured here: lipid fluorescence (Fed channel) AC50, cells fed with added oleic acid.

Data on 61 compounds can be found in PubChem BioAssay AID2685 (National Center for Advancing Translational Sciences (NCATS), 2010).

This is one part of the list. These are further read-outs of the screen, such as a control signal, another cell line or another target. No call is given for them. The list favours compounds with an active or inconclusive main result. The note in brackets gives the kind of curve behind each potency; many fits are weak.

As to `Cc1cc2n(n1)C(c1sccc1C)Nc1ccccc1-2` (configuration not stated), the cell number change is -10.4%.

Take `COc1ccc(/C(N)=N/OC(=O)c2cccc([N+](=O)[O-])c2)cc1`: the cell number change is 12.2%. Further, under setting [1], the AC50 was 6.51 µM [rising, single point]. Also, under setting [2], the AC50 is 14.6 µM [falling, single point].

For `CC(C)c1ccc(N(CC(=O)NCc2cccnc2)S(=O)(=O)c2ccccc2)cc1`, the cell number change stood at 3.78%. The AC50 under setting [2] is 20.6 µM [rising, single point].

As for `Cc1sc2nc(CSCC(=O)NC3CCCCC3)[nH]c(=O)c2c1C`, the cell number change was -6.92%. For the same compound, the AC50 under setting [2] was 0.116 µM [falling, full curve, poor fit].

`Cc1ccc(N2CCN(C(=S)Nc3ccc(Cl)cc3)CC2)cc1`: the cell number change came to 7.14%. Besides, under setting [2], the AC50 was 29.1 µM [rising, single point].

Consider `Cc1ccc(C(=C2C3C=CC2C2C(=O)NC(=O)C32)c2ccc(C)cc2)cc1` (configuration not stated), for which the AC50 under setting [1] is 6.51 µM [falling, single point] and the AC50 under setting [2] is 6.51 µM [falling, single point].

Regarding `CCCCCCCN1N=C(C)C(C(=O)c2ccccc2)C1=O` (configuration not stated), the cell number change is -15.2%. Moreover, under setting [2], the half-maximal activity concentration (AC50) is 6.51 µM [falling, single point].

As to `Cc1ccc(NC(=O)Nc2ccc(Cl)cc2)c(Br)c1`, the cell number change was -61.1%. The AC50 under setting [1] is 23.1 µM [falling, single point].

For `CCN=c1scc(-c2ccc(F)cc2)n1/N=C/c1ccccn1`, the cell number change worked out at 35.6%. Moreover, under setting [1], the AC50 is 0.731 µM [rising, full curve, poor fit].

As to `COc1cccc(NC(=O)CCS(=O)(=O)c2ccc3c(c2)oc(=O)n3C)c1`, the cell number change is -4.42%. The AC50 under setting [2] was 0.58 µM [rising, single point].

Consider `CCOc1cc(/C=C(\C#N)c2[nH]nc(N)c2C#N)ccc1O`, for which the cell number change came to 9.22%. In addition, the concentration at half-maximal activity (AC50) under setting [2] was 3.66 µM [falling, partial curve].

`COc1ccc(CCNC(=O)C(=O)NCCOc2ccccc2)cc1OC`: the cell number change was found to be 39.4%. In addition, under setting [1], the AC50 is 29.1 µM [rising, single point].

On to `O=C(Nc1ccccn1)c1ccc(C(=O)c2ccccc2)cc1`, for which the cell number change was -24.1%. Under setting [2], the AC50 is 29.1 µM [falling, single point].

On to `CCOc1ccccc1Oc1cn[nH]c1-c1ccc(OC)cc1O`, for which the cell number change was -21.2%. Besides, the AC50 under setting [1] was 0.517 µM [falling, full curve, poor fit]. In addition, under setting [2], the AC50 is 0.651 µM [falling, full curve, poor fit].

Turning to `COc1ccc(NS(=O)(=O)c2csc(C(=O)N3CCCC3)c2)c(OC)c1`, the cell number change was -16.9%.

As for `CC(C)(C)C(=O)c1cn(CC(=O)NCc2ccc3c(c2)OCO3)c2ccccc12`, the cell number change is -8.67%. Also, the concentration at half-maximal activity (AC50) under setting [2] is 6.51 µM [rising, single point].

As for `O=C(COC(=O)CNC(=O)c1ccc(Cl)cc1Cl)NC(=O)NC1CCCCC1`, the cell number change was -15.4%. The AC50 under setting [2] was 0.82 µM [falling, full curve].

On to `CCCCCN1CSC(=S)N(Cc2ccccc2)C1`, for which the cell number change was -5.68%. The AC50 under setting [2] is 0.651 µM [falling, full curve].

Take `Cc1ccc(C)c(S(=O)(=O)Nc2ccc(C(=O)NCCCN3CCCC3=O)cc2)c1`: the cell number change was 1.49%. Moreover, the AC50 under setting [1] is 0.103 µM [rising, full curve, poor fit]. For the same compound, the AC50 under setting [2] was 29.1 µM [rising, single point].

With `CC1=C/C(=N\OS(=O)(=O)c2ccccc2)C(C)=CC1=O`, the cell number change is -91.7%. The AC50 under setting [1] is 16.4 µM [falling, partial curve]. Besides, the concentration at half-maximal activity (AC50) under setting [2] was 20.6 µM [falling, partial curve].

On to `CC(C)(C)n1cnc2cc(NC(=O)c3cccs3)ccc21`, for which the cell number change is -36.2%.

Consider `Cc1cc(S(=O)(=O)N2CCCCC2)ccc1OCC(=O)N1CCCC1`, for which the cell number change was -18.2%. In addition, the concentration at half-maximal activity (AC50) under setting [2] was 29.1 µM [rising, single point].

`CCCCN(CC)CCNC(=O)Cn1cnc2sc(C)c(S(=O)(=O)N3CCC(C)CC3)c2c1=O`: the cell number change amounted to 32.9%. Under setting [1], the AC50 was 32.6 µM [rising, single point].

For `Cc1ccc(S(=O)(=O)N2CCN(C(=O)COC(=O)CNC(=O)c3ccccc3)CC2)c(C)c1`, the cell number change was -38%. For the same compound, the AC50 under setting [1] was 0.00731 µM [falling, full curve, poor fit].

On to `CCc1ccc(N2CC(C(=O)Nc3ccc4c(c3)OCCO4)CC2=O)cc1` (configuration not stated), for which the cell number change is 25.7%. Under setting [2], the AC50 was 29.1 µM [rising, partial curve].

Take `Cc1cccc(S(=O)(=O)NC2CCCCCCC2)c1`: the cell number change turned out to be 1.9%. Under setting [2], the AC50 is 29.1 µM [rising, partial curve, poor fit].

In the case of `CC(C)NC(=O)CCCc1ccccc1`, the cell number change worked out at 10.7%.

Consider `OC(CNCC1(N2CCCCC2)CCCCC1)COc1ccc(Cl)cc1Cl` (configuration not stated), for which the cell number change was 23.8%.

On to `COc1ccc(CCNC(=O)c2cnn3cccnc23)cc1OC`, for which the AC50 under setting [1] is 0.58 µM [rising, single point].

Turning to `Cc1ccc(C)c(OCc2nc3ccc(S(=O)(=O)Nc4c(C)n(C)n(-c5ccccc5)c4=O)cc3[nH]2)c1`, the cell number change stood at 64%. Moreover, the AC50 under setting [1] was 10.3 µM [rising, partial curve].

Take `O=C(NCc1ccco1)c1cc2n(n1)C(C(F)(F)F)CC(c1ccc(Cl)c(Cl)c1)N2` (configuration not stated): the cell number change is -19.8%.

On to `Cc1ccccc1NC(=O)COC(=O)c1cc[n+]([O-])cc1`, for which the cell number change is 6.96%. In addition, the AC50 under setting [2] is 0.00517 µM [rising, full curve, poor fit].

Turning to `C=CCN1C(=O)c2ccccc2NC1c1ccc(Br)s1` (configuration not stated), the cell number change is -10.5%.

`S=C(NCCc1ccccc1)N1CCn2cccc2C1c1ccncc1` (configuration not stated): the AC50 under setting [2] is 23.1 µM [falling, partial curve].

Regarding `O=C(Nc1ccc(C(=O)c2ccccc2)cc1)c1ccccc1`, the cell number change is -5.62%. In addition, the concentration at half-maximal activity (AC50) under setting [2] was 3.66 µM [falling, single point].

In the case of `N#CC(Cc1cccc(CC(C#N)(c2ccccc2)c2ccccc2)c1)(c1ccccc1)c1ccccc1`, the cell number change was 30.5%. The AC50 under setting [1] was 18.4 µM [rising, partial curve, poor fit]. For the same compound, the AC50 under setting [2] is 4.61 µM [rising, single point].

`O=C(NCc1ccccn1)Nc1cccc(Cl)c1`: the cell number change was -24.9%. In addition, under setting [2], the AC50 is 20.6 µM [falling, single point].

Turning to `CN1CCCN(c2ccc([N+](=O)[O-])cc2)CC1`, the cell number change came out at 16.5%. In addition, the AC50 under setting [2] was 32.6 µM [falling, single point].

`Cc1ccc(-c2cc(-c3ccc(C)cc3O)[nH]n2)cc1`: the cell number change is -13.7%.

For `Cc1cc(S(=O)(=O)Nc2cccc(Cl)c2)c(C)s1`, the cell number change was -29.8%. Moreover, the AC50 under setting [2] is 11.6 µM [falling, partial curve, poor fit].

On to `Cc1c(/C=N/n2cnnc2)c2ccccc2n1CCOc1ccc(Cl)cc1`, for which the cell number change was -21.2%. Under setting [2], the AC50 is 0.58 µM [rising, full curve].

Regarding `Cc1ccc(C)c(OCC(=O)Nc2c[nH]c(=O)[nH]c2=O)c1`, the cell number change is -9.32%. Moreover, under setting [2], the AC50 was 0.082 µM [falling, full curve, poor fit].

In the case of `CN1CCN(C(=S)Nc2ccc(Cl)c(Cl)c2)CC1`, the cell number change is -16.8%. Besides, under setting [1], the AC50 was 0.0058 µM [falling, full curve, poor fit]. Moreover, the AC50 under setting [2] was 0.164 µM [falling, partial curve, poor fit].

On to `Cc1ccsc1CN(C)C(=O)CN1C(=O)NC(c2ccccc2)(c2ccccc2)C1=O`, for which the cell number change was -1.98%. Besides, the half-maximal activity concentration (AC50) under setting [2] was 6.51 µM [falling, single point].

Regarding `Cc1cccc(C(=O)Nc2cccc(-c3cnc4ccccc4n3)c2)c1`, the AC50 reads like this: under setting [1], 0.731 µM [rising, full curve]; under setting [2], 0.82 µM [rising, full curve].

For the compound `CCOc1ccc(OCCCCNCCN)cc1`, the cell number change was -3.75%. Also, the AC50 under setting [2] was 4.11 µM [falling, full curve].

As for `Cc1ccc(NC(=O)CN2CCC3(O)CCCCC3C2c2ccc3c(c2)OCO3)c(C)c1` (configuration not stated), the cell number change was -10.8%.

`O=C(N/N=C/c1cccc(Oc2ccccc2)c1)c1ccc(O)cc1O`: the cell number change is -7.43%. For the same compound, the AC50 under setting [2] was 29.1 µM [falling, single point].

For the compound `CCN(CC(=O)Nc1ccc2c(c1)OCCO2)Cc1cc(=O)oc2cc(C)c(C)cc12`, the cell number change worked out at 115%. Further, under setting [1], the half-maximal activity concentration (AC50) was 23.1 µM [rising, single point].

Take `COc1ccc(N2C(=O)CC(Sc3ncccc3C(=O)O)C2=O)cc1` (configuration not stated): the cell number change was -96.4%. Also, the half-maximal activity concentration (AC50) under setting [1] was 18.4 µM [falling, partial curve]. Also, the AC50 under setting [2] was 0.092 µM [falling, full curve, poor fit].

Turning to `CCCn1c(=O)c(C(=O)Nc2c(C)n(C)n(-c3ccccc3)c2=O)c(O)c2ccccc21`, the cell number change was -1.55%. For the same compound, under setting [2], the AC50 was 0.00517 µM [rising, full curve, poor fit].

For the compound `Cc1ccc(CNC(=O)C(=O)NCC2OCCN2S(=O)(=O)c2ccc3c(c2)OCCO3)cc1` (configuration not stated), the cell number change was 30.3%. The AC50 under setting [1] was 9.2 µM [rising, partial curve]. Further, the AC50 under setting [2] was 2.06 µM [rising, full curve].

Regarding `COc1ccc2oc(=O)c(/C(C)=N/Nc3nc(-c4cc(C)ccc4C)cs3)cc2c1`, the cell number change was -2.24%.

`O=C(C1CC1)N1CCc2cc(Br)cc(S(=O)(=O)NCCCN3CCCCC3)c21`: the cell number change was -1.28%.

Turning to `C=CCN(C(=O)CN1CCCCC1)c1nc(-c2ccccc2)cs1`, the cell number change turned out to be 22.2%. For the same compound, the AC50 under setting [2] was 29.1 µM [rising, single point].

As for `O=C(NCCC1=CCCCC1)c1cc(S(=O)(=O)N2CCOCC2)c(Cl)cc1Cl`, the concentration at half-maximal activity (AC50) is, setting by setting: under setting [1], 0.116 µM [rising, full curve, poor fit]; under setting [2], 20.6 µM [rising, partial curve, poor fit].

Regarding `CN(C)c1nc(N)nc(CSc2ccccn2)n1`, the cell number change stood at 20.2%. Also, under setting [2], the AC50 is 2.91 µM [rising, single point].

`CN(CCc1cn[nH]c1)C(=O)C1CCC(=O)N(CC2CCCCC2)C1` (configuration not stated): the cell number change is -7.73%.

Regarding `O=C(Nc1nnc(CCN2CCOCC2)s1)C1CCCCC1`, the cell number change is -17%. The AC50 under setting [2] is 29.1 µM [falling, single point].

`CC1CCC2C(C1)c1sc(=O)[nH]c1SC2(C)C` (configuration not stated): the cell number change is -85.3%. Besides, the AC50 under setting [1] was 2.06 µM [rising, partial curve].

`Cc1nc2ccc(S(=O)(=O)NC(C(=O)N3CCC(C)CC3)C(C)C)cc2s1` (configuration not stated): the cell number change was -11.7%. Moreover, under setting [1], the AC50 was 1.16 µM [falling, single point]. Also, the AC50 under setting [2] is 1.16 µM [falling, single point].
